Source: PubChem BioAssay AID1259405 (NCATS, 2018)
Here is an unselected part of about 50,000 reagents. Over the whole deposit, about 4,000 (8%) were called active. 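Mouse siRNA library applied to hamster cells; one well for each siRNA.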 The numbers tell different reagents against one gene apart. Reagent sequences are not shown.

- Aim: 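Knock-downs that lift recombinant protein yield in hamster ovary cells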 (primary screen)
- System: Chinese hamster CHO-K1 ovary cells with stable secreted eGFP expression
- Knock-down reagent: single siRNA against mouse genes, 0.8 pmol siRNA per well (2 µl of 400 nM stock)
- Duration: 3 days
- Detection: 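Percent of the per-plate non-targeting control median for intracellular GFP per well by laser scanning cytometry and for cell viability by ATP luminescence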
- Direction: GFP, % of control: higher = more GFP per well, higher productivity; viability (ATP), % of control: higher = more viable cells (more ATP)
- Rule for the call: 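a knock-down is called active if GFP reaches 120% or more of non-targeting control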

Wdr91 (WD repeat domain 91) #1 showed GFP, % of control 63.8; viability (ATP), % of control 38.6; inactive.
Against Wdr91 (WD repeat domain 91) #2, the entry reads GFP, % of control 60.6; viability (ATP), % of control 58.3; inactive.
With knock-down of Wdr91 (WD repeat domain 91) #3, the screen gave GFP, % of control 74.1; viability (ATP), % of control 81.5; inactive.
Depletion of Ppp1r2 (protein phosphatase 1, regulatory inhibitor subunit 2) #1 gave: GFP, % of control 62.9; viability (ATP), % of control 81.1; inactive.
After knock-down of Ppp1r2 (protein phosphatase 1, regulatory inhibitor subunit 2) #2, the screen gave GFP, % of control 87.7; viability (ATP), % of control 80.5; inactive.
Against Ppp1r2 (protein phosphatase 1, regulatory inhibitor subunit 2) #3 the deposit lists GFP, % of control 76.8; viability (ATP), % of control 75.2; inactive.
Knock-down of Gcm2 (glial cells missing homolog 2) #1 gave: GFP, % of control 41; viability (ATP), % of control 39.6; inactive.
Silencing of Gcm2 (glial cells missing homolog 2) #2 resulted in: GFP, % of control 52.1; viability (ATP), % of control 48; inactive.
Silencing of Mllt10 #1 came out at: GFP, % of control 96.3; viability (ATP), % of control 80.6; inactive.
Against Mllt10 #2, the values are GFP, % of control 74.9; viability (ATP), % of control 86.2; inactive.
For Mllt10 #3, the values are GFP, % of control 38.1; viability (ATP), % of control 39.8; inactive.
Silencing of Fam50a (family with sequence similarity 50, member A) #1 gave: GFP, % of control 75.4; viability (ATP), % of control 98.3; inactive.
Silencing of Fam50a (family with sequence similarity 50, member A) #2 gave: GFP, % of control 104; viability (ATP), % of control 41.1; inactive.
Depletion of Fam50a (family with sequence similarity 50, member A) #3 resulted in: GFP, % of control 85.2; viability (ATP), % of control 87.3; inactive.
Knock-down of Psat1 (phosphoserine aminotransferase 1) #1 gave: GFP, % of control 69.6; viability (ATP), % of control 61.9; inactive.
Psat1 (phosphoserine aminotransferase 1) #2 showed GFP, % of control 78.6; viability (ATP), % of control 63.3; inactive.
After knock-down of Psat1 (phosphoserine aminotransferase 1) #3, the record shows GFP, % of control 96.1; viability (ATP), % of control 95.2; inactive.
Atp2c1 (ATPase, Ca++-sequestering) #1 gave GFP, % of control 75.9; viability (ATP), % of control 66.4; inactive.
With knock-down of Atp2c1 (ATPase, Ca++-sequestering) #2, the screen gave GFP, % of control 88.9; viability (ATP), % of control 99.9; inactive.
Atp2c1 (ATPase, Ca++-sequestering) #3 showed GFP, % of control 51.3; viability (ATP), % of control 53.4; inactive.
With knock-down of Tubgcp5 (tubulin, gamma complex component 5) #1 the results were GFP, % of control 38.1; viability (ATP), % of control 50.7; inactive.
Depletion of Tubgcp5 (tubulin, gamma complex component 5) #2 gave: GFP, % of control 73.5; viability (ATP), % of control 64.1; inactive.
Depletion of Tubgcp5 (tubulin, gamma complex component 5) #3 came out at: GFP, % of control 55.8; viability (ATP), % of control 60.7; inactive.
For Hexb (hexosaminidase B) #1 the deposit lists GFP, % of control 96.4; viability (ATP), % of control 91.3; inactive.
Depletion of Hexb (hexosaminidase B) #2 gave: GFP, % of control 39.7; viability (ATP), % of control 65.6; inactive.
Against Hexb (hexosaminidase B) #3, the entry reads GFP, % of control 94; viability (ATP), % of control 90.2; inactive.
Knock-down of Ren2 (renin 2 tandem duplication of Ren1) #1 came out at: GFP, % of control 125; viability (ATP), % of control 82.8; active.
For Ren2 (renin 2 tandem duplication of Ren1) #2, the entry reads GFP, % of control 81.3; viability (ATP), % of control 60.6; inactive.
Against Ren2 (renin 2 tandem duplication of Ren1) #3 the deposit lists GFP, % of control 82.6; viability (ATP), % of control 84.9; inactive.

Ordered by “viability (ATP), % of control” (highest first): some entries from above
Hexb (hexosaminidase B) #3: GFP, % of control = 94; viability (ATP), % of control = 90.2; outcome = inactive
Hexb (hexosaminidase B) #2: GFP, % of control = 39.7; viability (ATP), % of control = 65.6; outcome = inactive
